Measurements from publication PMC7914255.
These are yes or no findings as the source states them, for the method shown. Sequences can lack the tags named with a protein.

Molecular target: T1, GST-TRIM41 (mouse) (UniProt Q5NCC3)
T1 sequence: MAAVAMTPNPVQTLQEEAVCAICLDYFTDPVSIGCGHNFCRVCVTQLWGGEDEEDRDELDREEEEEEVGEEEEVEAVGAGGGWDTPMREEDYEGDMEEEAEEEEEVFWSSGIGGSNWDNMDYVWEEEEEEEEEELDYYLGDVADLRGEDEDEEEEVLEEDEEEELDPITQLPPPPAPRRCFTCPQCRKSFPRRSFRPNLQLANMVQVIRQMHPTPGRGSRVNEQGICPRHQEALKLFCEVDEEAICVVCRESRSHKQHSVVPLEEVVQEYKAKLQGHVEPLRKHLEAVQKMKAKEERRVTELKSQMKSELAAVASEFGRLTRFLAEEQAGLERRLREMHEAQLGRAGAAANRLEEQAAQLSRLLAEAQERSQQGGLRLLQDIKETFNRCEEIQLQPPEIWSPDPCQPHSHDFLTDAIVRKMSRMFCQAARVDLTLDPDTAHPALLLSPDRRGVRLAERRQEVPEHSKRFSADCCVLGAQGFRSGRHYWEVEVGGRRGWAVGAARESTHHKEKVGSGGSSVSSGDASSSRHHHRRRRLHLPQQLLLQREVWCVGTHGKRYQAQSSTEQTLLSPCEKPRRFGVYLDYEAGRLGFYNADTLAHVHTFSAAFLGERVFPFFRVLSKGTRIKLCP
Test: condition: 1 μg GST-TRIM41 with 1 μg recombinant CARD11; pull-down; 1 μg GST or GST-TRIM41 coincubated with 1 μg recombinant CARD9, CARD11 or BCL10 for 1 h; sepharose 4B beads; Western blotting; both purified

binding: no binding
B1: Recombinant CARD11 (Creative BioMart Card11-385M) (protein, UniProt Q8CIS0 1-1159)
chain: MPGGGPAMDDYMETLKDEEEALWDNVECNRHMLSRYINPAKLTPYLRQCKVIDEQDEDEVLNAPMLPSKINRAGRLLDILHTKGQRGYVVFLESLEFYYPELYKLVTGKEPTRRFSTIVVEEGHEGLTHFLMNEVIKLQQQVKAKDLQRCELLAKSRQLEDEKKQLSLIRVELLTFQERYYKMKEERDSYNDELVKVKDDNYNLAMRYAQLSEEKNMAVMRSRDLQLEIDQLKHRLNKMEEECKLERNQSLKLKNDIENRPRKEQVLELERENEMLKTKIQELQSIIQAGKRSLPDSDKAILDILEHDRKEALEDRQELVNKIYNLQEEVRQAEELRDKYLEEKEDLELKCSTLGKDCEMYKHRMNTVMLQLEEVERERDQAFHSRDEAQTQYSQCLIEKDKYRKQIRELEEKNDEMRIEMVRREACIVNLESKLRRLSKDNGSLDQSLPRHLPATIISQNLGDTSPRTNGQEADDSSTSEESPEDSKYFLPYHPPRRRMNLKGIQLQRAKSPISMKQASEFQALMRTVKGHEEDFTDGSPSSSRSLPVTSSFSKMQPHRSRSSIMSITAEPPGNDSIVRRCKEDAPHRSTVEEDNDSCGFDALDLDDENHERYSFGPPSIHSSSSSHQSEGLDAYDLEQVNLMLRKFSLERPFRPSVTSGGHVRGTGPLVQHTTLNGDGLITQLTLLGGNARGSFIHSVKPGSLAERAGLREGHQLLLLEGCIRGERQSVPLDACTKEEARWTIQRCSGLITLHYKVNHEGYRKLLKEMEDGLITSGDSFYIRLNLNISSQLDACSMSLKCDDVVHVLDTMYQDRHEWLCARVDPFTDQDLDTGTIPSYSRAQQLLLVKLQRLVHRGNREEADSAHHTLRSLRNTLQPEEMLSTSDPRVSPRLSRASFFFGQLLQFVSRSENKYKRMNSNERVRIISGSPLGSLSRSSLDATKLLTEKHEELDPENELSRNLTLIPYSLVRAFHCERRRPVLFTPTMLAKTLVQKLLNSGGAMEFTICKSDIVTRDEFLRKQKTETIIYSREKNPNTFECIVPANIEAVAAKNKHCLLEAGIGCVRDLIKCKVYPIVLLIRVSEKNIKRFRKLLPRPETEEEFLRVCRLKEKELEALPCLYATVEAEMWSSVEELLRVLKDKIVEEQRKTIWVDEDQL
